Assay results as given in patent US7297515 (MYRIAD GENETICS, dated 2007).
Like-named read-outs stand apart in the source and are kept apart here. Results are given in words; binding and its absence hold for the method and conditions named. Some entries that bind do so weakly or less than the wild type. Blank lines part the entries; values can stand above or below the molecule they belong to.

Chains of the proteins cited; added tags and fusions are not shown. Lines headed by an entry give the natural chain unless they say otherwise; changes in a name come on top.
UniProt P17040: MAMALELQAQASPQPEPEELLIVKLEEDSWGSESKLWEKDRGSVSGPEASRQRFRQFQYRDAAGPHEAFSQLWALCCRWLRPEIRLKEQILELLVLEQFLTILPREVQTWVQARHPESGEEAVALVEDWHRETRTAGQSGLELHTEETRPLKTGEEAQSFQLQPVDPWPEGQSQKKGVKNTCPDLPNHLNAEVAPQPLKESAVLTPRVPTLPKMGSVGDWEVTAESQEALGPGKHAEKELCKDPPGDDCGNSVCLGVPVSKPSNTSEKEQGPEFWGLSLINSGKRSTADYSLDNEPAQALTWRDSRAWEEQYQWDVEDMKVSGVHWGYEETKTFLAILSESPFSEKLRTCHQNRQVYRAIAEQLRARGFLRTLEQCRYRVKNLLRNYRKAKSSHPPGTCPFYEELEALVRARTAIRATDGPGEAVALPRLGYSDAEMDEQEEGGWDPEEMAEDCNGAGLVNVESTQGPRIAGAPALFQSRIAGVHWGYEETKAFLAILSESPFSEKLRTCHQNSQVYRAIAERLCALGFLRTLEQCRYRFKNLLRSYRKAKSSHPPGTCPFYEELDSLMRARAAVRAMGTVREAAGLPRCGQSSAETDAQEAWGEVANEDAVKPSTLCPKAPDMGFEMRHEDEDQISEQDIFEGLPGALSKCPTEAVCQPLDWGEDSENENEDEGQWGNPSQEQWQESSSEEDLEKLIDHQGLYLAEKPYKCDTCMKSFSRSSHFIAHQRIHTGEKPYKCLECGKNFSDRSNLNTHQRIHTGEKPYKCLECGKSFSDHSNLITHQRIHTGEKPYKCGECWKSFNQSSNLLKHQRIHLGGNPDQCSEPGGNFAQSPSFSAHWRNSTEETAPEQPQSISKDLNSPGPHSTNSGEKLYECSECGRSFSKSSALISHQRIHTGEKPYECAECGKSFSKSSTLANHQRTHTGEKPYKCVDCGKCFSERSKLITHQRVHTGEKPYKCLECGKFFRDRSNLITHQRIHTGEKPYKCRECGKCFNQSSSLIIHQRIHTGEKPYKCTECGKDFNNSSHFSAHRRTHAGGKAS

Columns and labels:
[1] = target: T1, ZNF202 (bait form not given) (human) (UniProt O95125); assay: yeast two-hybrid (bait fragment not given)
T1 sequence (looked up): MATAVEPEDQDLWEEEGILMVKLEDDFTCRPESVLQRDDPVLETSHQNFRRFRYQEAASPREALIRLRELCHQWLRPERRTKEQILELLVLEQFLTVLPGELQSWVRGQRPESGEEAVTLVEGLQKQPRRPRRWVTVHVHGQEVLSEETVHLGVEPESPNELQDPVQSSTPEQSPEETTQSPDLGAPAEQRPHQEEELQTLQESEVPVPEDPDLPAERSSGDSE

[2] = target: T1, ZNF202 (bait form not given) (human); assay: yeast two-hybrid (bait fragment not given); remark: listed apart in the source

binding [1]: binds
Molecule: fragment of PN1851 of SEQ ID NO:13 (from UniProt P17040 14-369)

binding [2]: binds
B1: fragment of PN7745 of SEQ ID NO:26 (protein)
chain: NAADAESFRQRFRWFCYSEVAGPRKALSQLWELCNQWLRPDIHTKEQILELLVFEQFLTILPGEIRIWVKSQHPESSEEVVTLIEDLTQILEEKDPVSEDSTVSQEENSKEDKMVTVCPNTESCESAL
